Paper PMC3665532

Experiments:
[1] = molecular target: GST-fused wild-type C-terminal domain of KCC3; assay: pull-down; GST fusion proteins immobilised on glutathione-sepharose beads; pre-cleared HeLa cell lysate; 1 h at 4°C; rinsed three times in RIPA buffer; Vav2 immunoblot; only the target purified
[2] = molecular target: GST-fused mPro C-terminal domain of KCC3 (PP→QA); assay: as above

binding [1]: binds
binding [2]: binds
B1: Vav2 (guanine nucleotide exchange factor), endogenous in HeLa cells (protein, UniProt P52735 1-878)
chain: MEQWRQCGRWLIDCKVLPPNHRVVWPSAVVFDLAQALRDGVLLCQLLHNLSPGSIDLKDINFRPQMSQFLCLKNIRTFLKVCHDKFGLRNSELFDPFDLFDVRDFGKVISAVSRLSLHSIAQNKGIRPFPSEETTENDDDVYRSLEELADEHDLGEDIYDCVPCEDGGDDIYEDIIKVEVQQPMIRYMQKMGMTEDDKRNCCLLEIQETEAKYYRTLEDIEKNYMSPLRLVLSPADMAAVFINLEDLIKVHHSFLRAIDVSVMVGGSTLAKVFLDFKERLLIYGEYCSHMEHAQNTLNQLLASREDFRQKVEECTLKVQDGKFKLQDLLVVPMQRVLKYHLLLKELLSHSAERPERQQLKEALEAMQDLAMYINEVKRDKETLRKISEFQSSIENLQVKLEEFGRPKIDGELKVRSIVNHTKQDRYLFLFDKVVIVCKRKGYSYELKEIIELLFHKMTDDPMNNKDVKKSHGKMWSYGFYLIHLQGKQGFQFFCKTEDMKRKWMEQFEMAMSNIKPDKANANHHSFQMYTFDKTTNCKACKMFLRGTFYQGYMCTKCGVGAHKECLEVIPPCKFTSPADLDASGAGPGPKMVAMQNYHGNPAPPGKPVLTFQTGDVLELLRGDPESPWWEGRLVQTRKSGYFPSSSVKPCPVDGRPPISRPPSREIDYTAYPWFAGNMERQQTDNLLKSHASGTYLIRERPAEAERFAISIKFNDEVKHIKVVEKDNWIHITEAKKFDSLLELVEYYQCHSLKESFKQLDTTLKYPYKSRERSASRASSRSPASCASYNFSFLSPQGLSFASQGPSAPFWSVFTPRVIGTAVARYNFAARDMRELSLREGDVVRIYSRIGGDQGWWKGETNGRIGWFPSTYVEEEGIQ

Results are given in words; binding and its absence hold for the method and conditions named. In cells and extracts the contact can be indirect. A result given as binding can be weak or reduced; the word gives no strength.
